PubChem BioAssay AID540256 (National Center for Advancing Translational Sciences (NCATS), 2011)
In all, about 300,000 compounds went through this assay and about 3,700 (1.2%) were called active. Inconclusive means that the source gave no clear call. Such entries were picked first, then a sample of the others. The call rests on the fitted dose curve; tested in HEK293 cells. A potency beside an inconclusive call is a rough fit, not a confirmed value.

Assay: qHTS for Inhibitors of binding or entry into cells for Lassa Virus; further: nearly all actives have a fitted effect of over 50% in size
Conditions: Lassa virus pseudotype entry inhibition, cell reporter; activity change, negative = inhibition: at 37.9 µM (top of the series) unless noted
On the % scale 0 is the no-effect control and ±100 the full control effect; potency means the concentration at half of the fitted maximal effect.

With `COc1ccc(-c2noc(C3CCCN(C(=O)c4cccc(F)c4)C3)n2)cc1` (stereo not given) as the compound, how does the Potency read?
Its Potency is inconclusive: 11.2 µM [inhibitor, single point].

With `O=C(Nc1nnc(C23CC4CC(CC(C4)C2)C3)s1)c1ccco1` as the compound, how does the Potency read?
Its Potency is inconclusive: 1.64 µM [activator, partial curve, poor fit].

Which Potency does the source give for `CCN(CC)c1ccc(/C=N/NC(=O)c2ccc3nc[nH]c3c2)c(O)c1` here?
The Potency was inconclusive: 7.08 µM [inhibitor, full curve, poor fit].

For `Cc1ccc(S/C(=N\S(=O)(=O)c2ccc(Cl)cc2)c2ccccc2)cc1`, which Potency is on record?
Its Potency is inconclusive: 2.59 µM [activator, partial curve, poor fit].

Which Potency does the source give for `c1ccc(-c2ccc(-c3ccncn3)cc2)cc1` here?
The Potency was inconclusive: 35.5 µM [inhibitor, single point].

For `CCC(=NCc1ccco1)c1c(O)n(-c2ccc(OC)cc2)c(=O)[nH]c1=O`, which Potency is on record?
Its Potency is active: 1.64 µM.

With `Cn1nnnc1SCCCNCc1cccc(OCc2ccccc2Cl)c1` as the compound, how does the Potency read?
Its Potency is inconclusive: 14.1 µM [activator, single point].

Which “activity change, negative = inhibition” value does the source give for `COc1ccccc1C(=O)NC(CCSC)C(=O)NCc1ccccn1` (stereo not given) here?
The value was inactive: -1.54%.

Which Potency does the source give for `O=C(O)CCNC(=O)c1cncc(Br)c1` here?
Its Potency is inconclusive: 18.3 µM [inhibitor, single point].

Which “activity change, negative = inhibition” value does the source give for `CCOC(=O)c1ccc(NS(=O)(=O)c2ccc3[nH]c4c(c3c2)CCCCC4)cc1` here?
The value was inactive: -18.7% [at 46.1 µM].

Which “activity change, negative = inhibition” value does the source give for `CCOC(=O)c1ccc(N2C(=O)c3n[nH]c(C)c3C2c2ccc(O)cc2)cc1` (stereo not given) here?
The value was inactive: -11.6%.

For `CCN(CC)S(=O)(=O)c1cc(C(=O)OCC(=O)c2ccc3c(c2)NC(=O)CO3)ccc1Cl`, which “activity change, negative = inhibition” value is on record?
The value was inactive: 2.07%.

Which Potency does the source give for `O=C(NC1=NC2CCCCC2N1)c1ccccc1` (stereo not given) here?
Its Potency is inconclusive: 6.31 µM [inhibitor, single point].

Which Potency does the source give for `CCc1ccc(C(=O)COC(=O)CCc2nc3ccccc3c(=O)[nH]2)cc1` here?
The Potency was inconclusive: 1.12 µM [activator, full curve, poor fit].

With `CCCC(=O)Nc1ccc(NC(=O)c2ccco2)c(OC)c1` as the compound, how does the Potency read?
The Potency was inconclusive: 0.231 µM [activator, full curve, poor fit].

Which Potency does the source give for `CN(C)c1ccc(C(=O)/C=C/c2ccco2)cc1` here?
Its Potency is inconclusive: 8.2 µM [inhibitor, single point].

Which “activity change, negative = inhibition” value does the source give for `COc1ccc(CNc2nc(SCC(=O)NCc3ccco3)nc3ccccc23)cc1` here?
The value was inactive: -18.9% [at 14.3 µM].

For `Cc1cc(C)n2nc(-c3sccc3-n3c(C)ccc3C)cc2n1`, which “activity change, negative = inhibition” value is on record?
Its value is inactive: -6.11%.

With `Cc1ccc(Cl)cc1Nc1nc(N2CCOCC2)nc(N2CCOCC2)n1` as the compound, how does the Potency read?
Its Potency is inconclusive: 31.6 µM [inhibitor, single point].

Which Potency does the source give for `CN(CC(=O)Nc1ccc(S(=O)(=O)N2CCCC2)cc1)CC(=O)Nc1cccc(F)c1` here?
Its Potency is inconclusive: 17.8 µM [inhibitor, single point].

For `COc1ccc(Oc2nc(-c3ccccn3)ncc2OC)cc1`, which Potency is on record?
The Potency was inconclusive: 17.8 µM [inhibitor, single point].

With `O=C(Nc1ccc([N+](=O)[O-])cc1)c1cc(-c2ccccn2)nc2c(Cl)cccc12` as the compound, how does the “activity change, negative = inhibition” value read?
The value was inactive: -20.6%.

With `COc1ccc(CNC(=O)[C@H](C)NC(=O)C2CCN(S(=O)(=O)c3ccc(C)cc3)CC2)cc1` as the compound, how does the Potency read?
Its Potency is inconclusive: 29.1 µM [inhibitor, single point].

Which Potency does the source give for `Oc1[nH]c2ccccc2c1C=Nc1ccc2c(c1)OCO2` here?
Its Potency is inconclusive: 0.164 µM [activator, full curve].

For `O=C1c2ccncc2C(=O)N1CNc1ccc(Cl)cc1`, which “activity change, negative = inhibition” value is on record?
The value was inactive: -14.1% [at 46.1 µM].

With `N#C/C(=C\c1c[nH]c2ccccc12)C(=O)NC1CC1` as the compound, how does the Potency read?
Its Potency is inconclusive: 31.6 µM [inhibitor, single point].

With `CS(=O)(=O)CCNCc1ccc(-c2ccc3ncnc(Nc4ccc(OCc5ccccc5)c(Br)c4)c3c2)o1` as the compound, how does the Potency read?
The Potency was inconclusive: 35.3 µM [inhibitor, partial curve, poor fit].

For `CC(=O)Nc1ccc(NS(=O)(=O)c2cc([N+](=O)[O-])ccc2C)cc1`, which “activity change, negative = inhibition” value is on record?
The value was inactive: -0.98%.

Which Potency does the source give for `CC1CN(C(=O)c2ccc(Oc3ccccc3)cc2)CC(C)O1` (stereo not given) here?
The Potency was inconclusive: 0.891 µM [inhibitor, full curve, poor fit].

With `Fc1ccc(N2CCN(/C=C/c3nnnn3-c3ccccc3)CC2)cc1` as the compound, how does the Potency read?
The Potency was inconclusive: 29.1 µM [inhibitor, partial curve, poor fit].

Which Potency does the source give for `COc1ccc(OC(C)C(=O)Nc2ccccc2C(F)(F)F)cc1` (stereo not given) here?
Its Potency is inconclusive: 0.58 µM [inhibitor, full curve, poor fit].

With `CCOC(=O)c1ccc(CN(Cc2ccc(C)cc2)S(=O)(=O)c2ccc(NC(C)=O)cc2)cc1` as the compound, how does the Potency read?
Its Potency is inconclusive: 1 µM [inhibitor, full curve, poor fit].

For `Cc1ccc(NC(=O)C2CCCN(S(=O)(=O)c3c(C)n[nH]c3C)C2)cc1C` (stereo not given), which “activity change, negative = inhibition” value is on record?
Its value is inactive: -14.2% [at 46.1 µM].

For `CSc1cccc(NC(=O)C2CCN(S(=O)(=O)c3ccc4[nH]c5c(c4c3)CCCCC5)CC2)c1`, which Potency is on record?
The Potency was inconclusive: 11.2 µM [inhibitor, partial curve, poor fit].

With `CCOC(=O)Cc1csc(NC(=O)c2cc(C)c(C)s2)n1` as the compound, how does the “activity change, negative = inhibition” value read?
Its value is inactive: 4.64%.

For `N#Cc1ccc(Sc2ccccn2)c([N+](=O)[O-])c1`, which “activity change, negative = inhibition” value is on record?
Its value is inactive: 5.29%.

With `CCOc1ccccc1-n1nnnc1SCC(=O)NC(=O)Nc1ccc2c(c1)OCCO2` as the compound, how does the “activity change, negative = inhibition” value read?
The value was inactive: 2.91%.

For `CCC1(c2ccccc2)NC(=O)N(CC(=O)NNC(=O)c2ccoc2C)C1=O` (stereo not given), which Potency is on record?
Its Potency is inconclusive: 7.08 µM [inhibitor, partial curve, poor fit].

Which Potency does the source give for `CCC(=O)N1N=C(c2c(-c3ccccc3)c3cc(Cl)ccc3[nH]c2=O)CC1c1ccco1` (stereo not given) here?
The Potency was inconclusive: 35.5 µM [inhibitor, single point].

Which Potency does the source give for `CCOC(=O)N1CCC(NC(=O)C2CCN(C(=O)c3cc4sccc4n3CC)CC2)CC1` here?
The Potency was inconclusive: 12.6 µM [inhibitor, partial curve].

For `NC(=O)CSc1nnc(Cc2ccc3c(c2)OCO3)n1C1CCCCC1`, which Potency is on record?
Its Potency is inconclusive: 0.184 µM [activator, full curve, poor fit].

For `Cc1cnc(C(=O)Nc2ccc(N3CCCCC3)cc2)cn1`, which Potency is on record?
Its Potency is inconclusive: 2.82 µM [inhibitor, partial curve, poor fit].

For `CCN(CC)C(=O)C1CCCN(c2ccc([N+](=O)[O-])cc2)C1` (stereo not given), which “activity change, negative = inhibition” value is on record?
The value was inactive: -0.968%.

With `COc1ccc(C)cc1NC(=O)Cn1c(=O)oc2cc(S(=O)(=O)NCc3ccccc3)ccc21` as the compound, how does the “activity change, negative = inhibition” value read?
The value was inactive: 18.4% [at 46.1 µM].

Which “activity change, negative = inhibition” value does the source give for `CC(C)NC(=O)CN1CCN(C(=O)CCl)CC1` here?
The value was inactive: 2.73%.

Which Potency does the source give for `CC(C)CCNC(=O)Nc1cc(C(=O)NCc2cccc(F)c2)ccc1N1CCCC1` here?
Its Potency is inconclusive: 7.94 µM [inhibitor, partial curve, poor fit].

With `CCCCOC(=O)c1sc2nc(C)cc(C)c2c1N` as the compound, how does the Potency read?
The Potency was inconclusive: 3.16 µM [activator, partial curve, poor fit].

For `Cc1ccc(N2CCN(C(=S)c3ccc(-c4ccccc4[N+](=O)[O-])o3)CC2)cc1`, which Potency is on record?
The Potency was inconclusive: 1.58 µM [inhibitor, partial curve, poor fit].

With `C=CCn1c(SCC(=O)Nc2ccccc2F)nnc1C(C)NC(=O)c1ccccc1F` (stereo not given) as the compound, how does the Potency read?
Its Potency is inconclusive: 1.41 µM [activator, partial curve, poor fit].

With `COC(=O)c1ccccc1NC(=O)CN1CCC(NC(=O)c2ccccc2C)CC1` as the compound, how does the Potency read?
Its Potency is inconclusive: 32.6 µM [inhibitor, single point].

Which Potency does the source give for `CN1N=C(c2ccc(Cl)cc2)CC(c2ccc(Cl)cc2)C1=O` (stereo not given) here?
The Potency was inconclusive: 28.2 µM [inhibitor, partial curve, poor fit].

For `Cc1cc(C(=O)OCC(=O)NC2CCCCC2)c(C)o1`, which Potency is on record?
The Potency was inconclusive: 0.0891 µM [inhibitor, full curve, poor fit].

For `CCCN(CC(=O)Nc1ccccc1C)C(=O)CCl`, which Potency is on record?
Its Potency is inconclusive: 7.08 µM [inhibitor, partial curve, poor fit].

Which Potency does the source give for `COc1cccc(N2CCN(C(=O)c3cc4c(=O)n(Cc5ccco5)ccc4nc3C)CC2)c1` here?
Its Potency is inconclusive: 20 µM [inhibitor, single point].

With `Cc1cc(C)c(C(=O)OCC(=O)NCc2cccs2)c(C)c1` as the compound, how does the Potency read?
The Potency was inconclusive: 11.2 µM [inhibitor, partial curve, poor fit].

With `Cc1c(C(=O)N2CCC(C(N)=O)CC2)sc(N)c1C#N` as the compound, how does the Potency read?
Its Potency is inconclusive: 1.83 µM [inhibitor, partial curve, poor fit].

Which Potency does the source give for `COc1ccc(-n2c(SC(CN3CCCCC3)CN3CCCC3=O)nc3ccccc3c2=O)cc1` (stereo not given) here?
Its Potency is inconclusive: 12.6 µM [inhibitor, partial curve, poor fit].

With `CCOC(=O)CC1C(=O)NCCN1C(=S)Nc1ccccc1` (stereo not given) as the compound, how does the “activity change, negative = inhibition” value read?
The value was inactive: 2.54%.

For `Cc1cccc2c(N=Nc3ccccc3)c(O)[nH]c12`, which Potency is on record?
The Potency was inconclusive: 1 µM [activator, partial curve, poor fit].

For `CCn1c(COc2ccc(=O)n(-c3ccccc3)n2)nnc1SCc1ccc(C)cc1`, which Potency is on record?
Its Potency is inconclusive: 32.6 µM [inhibitor, partial curve, poor fit].

For `Cc1ccc(C)c(N2CCN(CCCNC(=O)c3nnc(Cc4ccc(F)cc4Cl)o3)CC2)c1`, which Potency is on record?
The Potency was inconclusive: 35.5 µM [inhibitor, single point].

Which Potency does the source give for `COc1ccc(N2CCN(C(=O)CSc3nnc4c(C)cc5c(C)cc(C)cc5n34)CC2)cc1` here?
The Potency was inconclusive: 29.1 µM [inhibitor, single point].

With `Cc1ccc(-c2nnc(SCC(=O)NC3CC3)o2)cc1` as the compound, how does the “activity change, negative = inhibition” value read?
Its value is inactive: 16.9% [at 46.1 µM].

With `CC(C)COC(=O)n1c(=O)oc2ccc(S(=O)(=O)N3CCCCC3)cc21` as the compound, how does the Potency read?
Its Potency is inconclusive: 35.5 µM [inhibitor, single point].

For `O=C(Nc1ccccc1)N1CCC(C(=O)N2CCN(S(=O)(=O)c3cccc(F)c3)CC2)CC1`, which Potency is on record?
Its Potency is inconclusive: 20.6 µM [activator, single point].
